For assay [1], the target named is Rsp5 WW1-HECT domain (224-809) (S. cerevisiae) (UniProt P39940). In words: ITC; Affinity-ITC calorimeter, 25°C; 20 mM Tris-HCl pH 7.5, 150 mM NaCl, 1 mM DTT; independent binding model; both purified. For orientation: Isothermal titration calorimetry measures the heat released or taken up as one component is titrated into another.
Another assay concerns the target T1, Mup1-GFP (S. cerevisiae) (UniProt P50276).
T1 sequence: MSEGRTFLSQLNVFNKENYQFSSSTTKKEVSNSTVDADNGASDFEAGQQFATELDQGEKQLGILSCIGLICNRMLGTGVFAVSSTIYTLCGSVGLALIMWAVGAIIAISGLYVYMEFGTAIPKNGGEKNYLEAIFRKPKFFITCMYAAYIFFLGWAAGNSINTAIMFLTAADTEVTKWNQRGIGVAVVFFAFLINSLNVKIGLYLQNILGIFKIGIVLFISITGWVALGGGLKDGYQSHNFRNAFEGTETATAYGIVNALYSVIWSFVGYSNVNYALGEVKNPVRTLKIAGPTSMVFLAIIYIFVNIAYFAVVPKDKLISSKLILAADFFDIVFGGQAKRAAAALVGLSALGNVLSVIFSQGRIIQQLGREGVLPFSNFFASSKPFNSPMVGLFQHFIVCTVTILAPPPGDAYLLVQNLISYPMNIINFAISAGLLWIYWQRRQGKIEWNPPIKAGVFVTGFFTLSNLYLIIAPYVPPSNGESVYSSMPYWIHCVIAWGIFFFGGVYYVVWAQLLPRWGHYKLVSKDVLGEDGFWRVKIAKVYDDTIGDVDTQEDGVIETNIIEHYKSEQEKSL
In words: co-IP; yeast lysate in IP buffer with 1% Triton X-100; GFP-tagged cargo bound to GFP-nanotrap resin 2 hr at 4°C; ART protein detected by blot.

Amino acid sequences for entries named in this document (tags omitted). A change or cut given only in a name is not applied to a line headed by its entry. Residues count along the entry.
UniProt P39940, residues 224-809: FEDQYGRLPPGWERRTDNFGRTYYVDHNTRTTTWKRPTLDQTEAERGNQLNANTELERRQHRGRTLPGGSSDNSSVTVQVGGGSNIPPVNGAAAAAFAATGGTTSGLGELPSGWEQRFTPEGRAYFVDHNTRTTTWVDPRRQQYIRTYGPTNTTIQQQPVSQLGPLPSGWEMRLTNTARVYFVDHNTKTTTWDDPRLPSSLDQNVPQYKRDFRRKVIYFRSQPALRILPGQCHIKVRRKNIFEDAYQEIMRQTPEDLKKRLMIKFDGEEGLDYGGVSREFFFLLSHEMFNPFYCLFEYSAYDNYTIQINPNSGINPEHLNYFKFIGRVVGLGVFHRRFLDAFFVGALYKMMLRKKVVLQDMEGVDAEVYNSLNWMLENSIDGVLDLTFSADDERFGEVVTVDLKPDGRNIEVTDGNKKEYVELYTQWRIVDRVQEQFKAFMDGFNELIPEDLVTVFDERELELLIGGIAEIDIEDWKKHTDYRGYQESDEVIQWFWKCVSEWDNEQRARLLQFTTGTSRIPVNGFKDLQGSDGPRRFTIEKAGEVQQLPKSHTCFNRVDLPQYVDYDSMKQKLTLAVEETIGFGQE
UniProt P53244: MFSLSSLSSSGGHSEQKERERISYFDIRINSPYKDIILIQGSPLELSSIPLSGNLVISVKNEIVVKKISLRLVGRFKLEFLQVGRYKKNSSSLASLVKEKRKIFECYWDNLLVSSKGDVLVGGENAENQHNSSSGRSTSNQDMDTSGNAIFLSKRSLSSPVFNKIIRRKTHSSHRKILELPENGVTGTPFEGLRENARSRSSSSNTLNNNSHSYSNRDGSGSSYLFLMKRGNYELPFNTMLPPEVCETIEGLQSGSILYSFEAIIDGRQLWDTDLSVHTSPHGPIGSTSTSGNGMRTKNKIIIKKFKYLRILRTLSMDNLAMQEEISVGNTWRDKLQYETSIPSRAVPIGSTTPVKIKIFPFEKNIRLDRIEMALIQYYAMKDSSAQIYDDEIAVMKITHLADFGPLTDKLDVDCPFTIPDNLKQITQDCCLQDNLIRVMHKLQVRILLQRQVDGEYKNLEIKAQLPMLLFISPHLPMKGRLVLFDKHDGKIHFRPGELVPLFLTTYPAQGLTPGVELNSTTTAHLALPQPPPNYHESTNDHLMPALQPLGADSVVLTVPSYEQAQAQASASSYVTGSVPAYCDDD

This passage reports binding results from article PMC9282857.

No constants are given. Whether binding was seen depends on the method and setting. For some assays here: Binding seen in cells or lysates may run through a third protein. For some assays here: Binding can be weak; no strength is given. For some assays here: Tags and fused reporters may be left off the sequences shown.

As for “Art5 PY motif mutant (PY motifs containing region) (from UniProt P53244) (domain or fragment)”, in assay [1], the binding result is “no binding”. In the case of art1^K486R (S. cerevisiae), the binding result with Mup1-GFP (S. cerevisiae) is reported as “binds”.
